Assay results: the supplement of paper PMC11006884
The entries are a selection whose mix differs from that of the whole data set. Single values of this set are uncertain.

By UniProt entry, the sequences of proteins in these tests, tags left out. Where a name states a change or a piece, a line headed by the entry shows the natural chain unless it says otherwise.
UniProt Q969E8: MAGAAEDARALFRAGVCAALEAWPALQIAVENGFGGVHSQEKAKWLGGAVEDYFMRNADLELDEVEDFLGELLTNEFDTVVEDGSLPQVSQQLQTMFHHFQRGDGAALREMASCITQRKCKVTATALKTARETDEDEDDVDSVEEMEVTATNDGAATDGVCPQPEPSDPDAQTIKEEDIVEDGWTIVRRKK
UniProt Q969Z3: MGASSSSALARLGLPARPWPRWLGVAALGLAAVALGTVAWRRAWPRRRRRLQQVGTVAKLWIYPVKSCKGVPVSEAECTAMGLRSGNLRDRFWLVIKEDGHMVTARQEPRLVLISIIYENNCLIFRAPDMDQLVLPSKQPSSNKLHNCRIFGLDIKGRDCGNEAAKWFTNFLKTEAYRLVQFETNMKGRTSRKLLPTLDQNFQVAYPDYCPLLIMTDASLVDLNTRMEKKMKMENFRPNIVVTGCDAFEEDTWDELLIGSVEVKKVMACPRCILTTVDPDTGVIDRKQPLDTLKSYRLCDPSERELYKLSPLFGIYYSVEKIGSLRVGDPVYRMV
UniProt Q96CW5, whole entry, looked up: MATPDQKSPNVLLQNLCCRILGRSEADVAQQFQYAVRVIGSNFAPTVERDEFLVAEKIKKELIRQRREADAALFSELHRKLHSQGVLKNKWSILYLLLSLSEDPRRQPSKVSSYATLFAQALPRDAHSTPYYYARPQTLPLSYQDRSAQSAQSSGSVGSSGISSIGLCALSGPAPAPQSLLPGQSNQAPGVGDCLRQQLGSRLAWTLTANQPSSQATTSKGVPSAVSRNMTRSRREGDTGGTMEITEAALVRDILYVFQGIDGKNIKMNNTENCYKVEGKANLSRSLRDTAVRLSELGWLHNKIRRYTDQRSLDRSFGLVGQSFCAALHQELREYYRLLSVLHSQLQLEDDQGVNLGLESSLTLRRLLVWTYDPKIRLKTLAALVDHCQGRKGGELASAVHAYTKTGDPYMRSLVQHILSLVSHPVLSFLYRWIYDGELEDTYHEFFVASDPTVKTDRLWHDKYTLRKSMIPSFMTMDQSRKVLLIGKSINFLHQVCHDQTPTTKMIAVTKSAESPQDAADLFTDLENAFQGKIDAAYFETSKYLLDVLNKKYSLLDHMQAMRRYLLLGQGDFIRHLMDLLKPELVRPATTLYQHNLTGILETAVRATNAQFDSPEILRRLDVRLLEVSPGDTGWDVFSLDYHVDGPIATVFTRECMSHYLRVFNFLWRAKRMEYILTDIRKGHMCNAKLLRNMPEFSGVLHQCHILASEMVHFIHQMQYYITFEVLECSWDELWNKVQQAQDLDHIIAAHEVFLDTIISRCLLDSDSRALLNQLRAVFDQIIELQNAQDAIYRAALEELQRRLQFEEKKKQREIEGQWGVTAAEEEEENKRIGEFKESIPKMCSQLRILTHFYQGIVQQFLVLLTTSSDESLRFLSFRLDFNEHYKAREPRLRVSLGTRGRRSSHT
UniProt Q96EP5: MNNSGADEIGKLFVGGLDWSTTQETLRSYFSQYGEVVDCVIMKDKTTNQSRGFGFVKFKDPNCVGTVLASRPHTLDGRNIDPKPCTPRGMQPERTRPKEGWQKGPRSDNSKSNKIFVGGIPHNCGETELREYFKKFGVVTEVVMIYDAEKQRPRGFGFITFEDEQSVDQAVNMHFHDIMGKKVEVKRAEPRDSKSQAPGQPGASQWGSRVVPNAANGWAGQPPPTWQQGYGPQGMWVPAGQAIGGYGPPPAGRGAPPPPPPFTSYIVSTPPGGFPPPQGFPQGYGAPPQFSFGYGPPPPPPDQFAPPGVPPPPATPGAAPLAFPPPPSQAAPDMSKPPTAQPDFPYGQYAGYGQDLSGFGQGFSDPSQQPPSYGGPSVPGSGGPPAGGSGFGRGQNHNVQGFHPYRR
UniProt Q92538, whole entry, looked up: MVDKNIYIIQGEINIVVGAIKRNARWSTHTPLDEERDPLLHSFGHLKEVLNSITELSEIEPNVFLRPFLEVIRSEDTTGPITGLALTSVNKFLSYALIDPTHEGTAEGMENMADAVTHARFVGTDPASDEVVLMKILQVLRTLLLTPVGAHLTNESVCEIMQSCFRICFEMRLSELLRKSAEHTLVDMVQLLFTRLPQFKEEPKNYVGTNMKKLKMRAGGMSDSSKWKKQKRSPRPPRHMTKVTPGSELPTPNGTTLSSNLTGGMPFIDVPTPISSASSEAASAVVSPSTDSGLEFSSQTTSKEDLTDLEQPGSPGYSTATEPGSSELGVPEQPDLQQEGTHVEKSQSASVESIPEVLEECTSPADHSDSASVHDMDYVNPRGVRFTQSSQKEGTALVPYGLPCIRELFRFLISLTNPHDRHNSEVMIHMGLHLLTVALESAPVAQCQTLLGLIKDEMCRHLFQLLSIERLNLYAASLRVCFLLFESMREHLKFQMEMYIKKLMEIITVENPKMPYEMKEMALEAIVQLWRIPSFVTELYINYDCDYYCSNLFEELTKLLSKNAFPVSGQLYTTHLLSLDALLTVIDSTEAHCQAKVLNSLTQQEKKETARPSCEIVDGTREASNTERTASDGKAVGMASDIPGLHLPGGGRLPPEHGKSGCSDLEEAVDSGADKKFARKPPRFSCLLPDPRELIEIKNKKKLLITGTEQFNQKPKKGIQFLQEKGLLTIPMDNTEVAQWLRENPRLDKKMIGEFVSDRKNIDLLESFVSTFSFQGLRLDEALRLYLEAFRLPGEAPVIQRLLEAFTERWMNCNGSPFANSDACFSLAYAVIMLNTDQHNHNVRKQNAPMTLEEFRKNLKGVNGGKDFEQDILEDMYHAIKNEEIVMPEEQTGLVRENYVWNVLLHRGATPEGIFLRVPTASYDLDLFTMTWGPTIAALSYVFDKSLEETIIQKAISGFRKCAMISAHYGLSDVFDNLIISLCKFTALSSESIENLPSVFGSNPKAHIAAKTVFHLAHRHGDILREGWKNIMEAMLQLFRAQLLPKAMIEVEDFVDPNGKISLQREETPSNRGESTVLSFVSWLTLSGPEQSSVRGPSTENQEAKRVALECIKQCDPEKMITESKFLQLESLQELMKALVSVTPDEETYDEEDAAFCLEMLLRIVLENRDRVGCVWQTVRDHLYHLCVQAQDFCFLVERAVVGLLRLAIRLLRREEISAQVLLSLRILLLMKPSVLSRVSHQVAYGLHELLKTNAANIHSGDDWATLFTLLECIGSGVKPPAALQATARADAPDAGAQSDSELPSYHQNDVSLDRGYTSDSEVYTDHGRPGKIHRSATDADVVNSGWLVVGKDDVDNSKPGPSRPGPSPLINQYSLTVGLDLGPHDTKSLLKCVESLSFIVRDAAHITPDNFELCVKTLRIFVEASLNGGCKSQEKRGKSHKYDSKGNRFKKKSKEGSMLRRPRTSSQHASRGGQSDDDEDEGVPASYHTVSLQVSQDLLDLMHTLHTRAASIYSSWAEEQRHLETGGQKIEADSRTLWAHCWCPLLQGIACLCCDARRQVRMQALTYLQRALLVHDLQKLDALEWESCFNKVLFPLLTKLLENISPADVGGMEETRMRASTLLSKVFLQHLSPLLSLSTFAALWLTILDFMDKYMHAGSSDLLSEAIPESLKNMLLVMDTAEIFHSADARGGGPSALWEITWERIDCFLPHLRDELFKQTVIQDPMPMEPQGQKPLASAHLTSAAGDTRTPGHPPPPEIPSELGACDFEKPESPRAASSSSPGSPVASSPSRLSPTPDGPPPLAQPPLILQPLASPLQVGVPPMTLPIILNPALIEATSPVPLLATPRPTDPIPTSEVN
UniProt Q92947: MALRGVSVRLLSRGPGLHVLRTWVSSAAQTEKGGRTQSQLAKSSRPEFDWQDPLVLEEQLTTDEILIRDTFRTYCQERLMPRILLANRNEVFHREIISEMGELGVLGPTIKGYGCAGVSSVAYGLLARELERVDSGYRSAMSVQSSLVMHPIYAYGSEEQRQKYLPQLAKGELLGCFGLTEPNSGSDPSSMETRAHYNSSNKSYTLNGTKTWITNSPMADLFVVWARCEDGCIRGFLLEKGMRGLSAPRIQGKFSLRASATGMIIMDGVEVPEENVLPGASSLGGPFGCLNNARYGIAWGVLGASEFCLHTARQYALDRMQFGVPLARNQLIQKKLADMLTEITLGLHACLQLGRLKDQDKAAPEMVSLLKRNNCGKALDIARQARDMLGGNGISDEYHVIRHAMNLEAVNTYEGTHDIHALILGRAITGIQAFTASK
UniProt Q92804: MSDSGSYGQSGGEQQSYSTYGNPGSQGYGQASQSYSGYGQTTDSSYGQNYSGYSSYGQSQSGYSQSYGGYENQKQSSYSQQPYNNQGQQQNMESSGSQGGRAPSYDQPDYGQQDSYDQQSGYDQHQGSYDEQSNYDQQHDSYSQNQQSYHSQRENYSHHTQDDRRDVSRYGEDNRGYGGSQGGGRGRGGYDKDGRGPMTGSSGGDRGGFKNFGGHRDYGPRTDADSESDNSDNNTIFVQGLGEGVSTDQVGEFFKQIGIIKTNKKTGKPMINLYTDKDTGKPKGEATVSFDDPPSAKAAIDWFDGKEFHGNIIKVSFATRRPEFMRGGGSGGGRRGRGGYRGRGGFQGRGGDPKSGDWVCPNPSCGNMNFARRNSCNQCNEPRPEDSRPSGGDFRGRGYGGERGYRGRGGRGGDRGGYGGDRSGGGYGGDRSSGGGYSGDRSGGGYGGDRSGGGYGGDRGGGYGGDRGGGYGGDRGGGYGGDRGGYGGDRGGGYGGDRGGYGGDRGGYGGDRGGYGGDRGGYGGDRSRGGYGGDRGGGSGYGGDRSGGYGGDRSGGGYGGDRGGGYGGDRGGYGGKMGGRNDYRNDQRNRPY
UniProt Q96D70: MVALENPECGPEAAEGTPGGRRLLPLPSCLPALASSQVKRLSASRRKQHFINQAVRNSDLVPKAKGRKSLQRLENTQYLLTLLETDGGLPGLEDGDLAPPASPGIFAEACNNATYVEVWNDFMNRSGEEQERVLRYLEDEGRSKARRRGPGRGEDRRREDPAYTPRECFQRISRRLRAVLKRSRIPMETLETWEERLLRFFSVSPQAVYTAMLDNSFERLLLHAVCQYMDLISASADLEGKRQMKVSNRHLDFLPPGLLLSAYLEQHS
UniProt Q93052: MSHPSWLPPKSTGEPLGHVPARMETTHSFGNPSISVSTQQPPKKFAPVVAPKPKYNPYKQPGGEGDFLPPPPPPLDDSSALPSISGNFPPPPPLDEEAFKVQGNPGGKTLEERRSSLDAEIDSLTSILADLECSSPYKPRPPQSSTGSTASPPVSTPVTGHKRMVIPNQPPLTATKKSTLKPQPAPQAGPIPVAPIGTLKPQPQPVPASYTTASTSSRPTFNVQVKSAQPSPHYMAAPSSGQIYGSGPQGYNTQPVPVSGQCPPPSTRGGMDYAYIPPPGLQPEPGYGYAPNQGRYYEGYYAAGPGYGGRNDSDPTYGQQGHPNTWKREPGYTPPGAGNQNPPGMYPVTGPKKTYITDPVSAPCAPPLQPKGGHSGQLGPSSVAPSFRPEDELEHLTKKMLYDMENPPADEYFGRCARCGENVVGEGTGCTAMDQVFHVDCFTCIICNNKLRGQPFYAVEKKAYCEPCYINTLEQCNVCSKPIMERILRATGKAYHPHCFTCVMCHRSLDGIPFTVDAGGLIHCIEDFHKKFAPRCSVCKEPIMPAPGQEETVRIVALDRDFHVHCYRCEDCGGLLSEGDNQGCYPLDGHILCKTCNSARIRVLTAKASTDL
UniProt Q92945: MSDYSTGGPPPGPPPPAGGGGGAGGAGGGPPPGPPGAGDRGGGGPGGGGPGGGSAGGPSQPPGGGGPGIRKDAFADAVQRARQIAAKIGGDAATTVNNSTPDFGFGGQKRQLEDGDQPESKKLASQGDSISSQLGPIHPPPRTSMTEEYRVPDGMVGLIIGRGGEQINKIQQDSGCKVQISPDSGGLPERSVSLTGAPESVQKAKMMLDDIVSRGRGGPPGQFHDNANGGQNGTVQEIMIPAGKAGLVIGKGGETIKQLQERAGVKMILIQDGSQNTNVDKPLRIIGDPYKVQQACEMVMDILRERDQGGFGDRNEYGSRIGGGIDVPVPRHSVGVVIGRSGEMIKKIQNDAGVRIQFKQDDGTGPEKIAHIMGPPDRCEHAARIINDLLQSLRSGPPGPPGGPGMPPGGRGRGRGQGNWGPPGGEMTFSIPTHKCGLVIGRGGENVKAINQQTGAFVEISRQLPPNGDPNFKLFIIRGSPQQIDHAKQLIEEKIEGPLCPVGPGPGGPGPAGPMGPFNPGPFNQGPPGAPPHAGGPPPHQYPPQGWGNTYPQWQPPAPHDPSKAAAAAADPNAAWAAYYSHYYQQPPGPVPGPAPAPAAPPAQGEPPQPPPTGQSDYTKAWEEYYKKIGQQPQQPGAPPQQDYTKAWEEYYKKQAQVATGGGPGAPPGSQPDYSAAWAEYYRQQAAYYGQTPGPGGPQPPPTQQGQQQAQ
UniProt Q96B54: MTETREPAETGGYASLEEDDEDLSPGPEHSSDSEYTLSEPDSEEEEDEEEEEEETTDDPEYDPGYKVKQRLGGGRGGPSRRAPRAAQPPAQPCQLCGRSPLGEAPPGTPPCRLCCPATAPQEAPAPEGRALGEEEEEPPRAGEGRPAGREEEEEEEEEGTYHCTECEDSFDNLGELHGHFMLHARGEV

Compound: COC(=O)/C=C/c1ccccc1 [methyl cinnamate]
Test: log2 ratio of iodoacetamide-alkyne labeling of the cysteine site, DMSO over compound (competition); higher = stronger covalent engagement of the cysteine by the compound, active = 1 or more
Settings: 500 µM; treatment time 1 h; system: HEK293T cell lysate
Procedure, shortened: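 Three replicates, each with duplicate channels, were prepared from HEK293T lysate (2 mg/mL) treated with vehicle or electrophile at 500 µM for 1 h at ambient temperature. Iodoacetamide alkyne was then applied for 1 h, and samples were clicked to sCIP-TMT reagents, pooled, trypsin-digested overnight at 37 °C, enriched on streptavidin, acid-eluted and analysed on Orbitrap Eclipse LC-MS/MS with FAIMS, with FragPipe quantification. The log2 competition ratio per cysteine is the mean control-channel divided by the mean compound-channel reporter intensity. Cysteines quantified in only one replicate were left out.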

log2 ratio of iodoacetamide-alkyne labeling, inactive:
SYMPK C848 (UniProt Q92797) 0.14
FUBP1 C332 (UniProt Q96AE4) 0.159
SNX19 C277 (UniProt Q92543) 0.0209
UniProt Q92888_C537 0.0706
TSR2 C17 (UniProt Q969E8) 0.0903
UniProt Q969Z3_C272 0.0568
TUBGCP3 C274 (UniProt Q96CW5) 0.136
UniProt Q92616_C2015 0.121
UniProt Q96ES7_C243 -0.317
DAZAP1 C63 (UniProt Q96EP5) 0.191
OTUB1 C23 (UniProt Q96FW1) 0.407
PHF3 C843 (UniProt Q92576) 0.409
SAAL1 C248 (UniProt Q96ER3) 0.542
CMBL C8 (UniProt Q96DG6) -0.0212
GBF1 C1766 (UniProt Q92538) 0.238
GCDH C176 (UniProt Q92947) 0.0971
USP7 C510 (UniProt Q93009) 0.173
UniProt Q92616_C648 0.0241
PYCR2 C95 (UniProt Q96C36) -0.471
TUBGCP3 C497 (UniProt Q96CW5) 0.0455
TAF15 C365 (UniProt Q92804) 0.0886
R3HDM4 C29 (UniProt Q96D70) 0.0512
TTC28 C502 (UniProt Q96AY4) 0.108
LPP C524 (UniProt Q93052) 0.149
KHSRP C176 (UniProt Q92945) 0.0858
ZNF428 C115 (UniProt Q96B54) 0.0995
OTUD5 C434 (UniProt Q96G74) 0.152
TONSL C830 (UniProt Q96HA7) 0.0334
EDC3 C91 (UniProt Q96F86) -0.0883
DAZAP1 C85 (UniProt Q96EP5) 0.0538
DPF2 C374 (UniProt Q92785) 0.0459
LPP C468 (UniProt Q93052) 0.0367
HDAC2 C417 (UniProt Q92769) 0.308
RABGGTA C354 (UniProt Q92696) -0.171
USP9X C864 (UniProt Q93008) 0.217
GPKOW C137 (UniProt Q92917) 0.444
MRPL38 C143 (UniProt Q96DV4) 0.131
HSPH1 C290 (UniProt Q92598) 0.0473

Pulled one by one from above:
log2 ratio of iodoacetamide-alkyne labeling, inactive:
TSR2 C17 (UniProt Q969E8) 0.0903
UniProt Q96ES7_C243 -0.317
